Values from PubChem BioAssay AID1224830 (NIAID, 2016).
In all, the deposit lists about 18,000 reagents; below is a part drawn at random. About 2,900 of them (16%) were called active. 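Calls are made per well; low scores hint the gene aids the LPS response, high scores that it dampens it.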 Repeated entries: four replicate wells of each siRNA pool.

Aim: 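Regulators of TLR4 signalling towards TNF-alpha in macrophage-like cells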 (primary screen)
System: human THP-1 monocytic leukaemia cells, TNF dual-luciferase reporter clone, PMA-differentiated to macrophage-like cells
Knock-down reagent: siRNA pool against human genes, 50 nM
Timing: LPS for 4 h, given about 3 days after siRNA transfection
Treatment: bacterial LPS (TLR4 ligand), 10 ng/ml
Measured: 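TNF firefly reporter luminescence divided by renilla, normalised to the plate median, then turned into a robust z-score for each replicate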
Scale: TNF reporter robust z-score: higher = stronger TNF reporter response to LPS
Call rule: 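Each well counts as active if its z-score is over 2.8 or under -1.5; controls are left without a call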

gene symbol | PubChem SID | TNF reporter robust z-score | outcome
LRRC73 (leucine rich repeat containing 73) | SID315463295 | -1.89 | active
LRRC73 (leucine rich repeat containing 73) | SID315463295 | -1.36 | inactive
LRRC73 (leucine rich repeat containing 73) | SID315463295 | -1.26 | inactive
LRRC73 (leucine rich repeat containing 73) | SID315463295 | -1.33 | inactive
BRD4 (bromodomain containing 4) | SID315455268 | 0.07 | inactive
BRD4 (bromodomain containing 4) | SID315455268 | 0.61 | inactive
BRD4 (bromodomain containing 4) | SID315455268 | 0.53 | inactive
BRD4 (bromodomain containing 4) | SID315455268 | 0.08 | inactive
ARID5B (AT-rich interaction domain 5B) | SID315460216 | -0.19 | inactive
ARID5B (AT-rich interaction domain 5B) | SID315460216 | 0.5 | inactive
ARID5B (AT-rich interaction domain 5B) | SID315460216 | 1.49 | inactive
ARID5B (AT-rich interaction domain 5B) | SID315460216 | 1.1 | inactive
SRP72 (signal recognition particle 72) | SID315451639 | -0.84 | inactive
SRP72 (signal recognition particle 72) | SID315451639 | 0.74 | inactive
SRP72 (signal recognition particle 72) | SID315451639 | 0.75 | inactive
SRP72 (signal recognition particle 72) | SID315451639 | 1.31 | inactive
SLC10A6 | SID315464188 | 1.39 | inactive
SLC10A6 | SID315464188 | 2.14 | inactive
SLC10A6 | SID315464188 | 0.44 | inactive
CSNK1A1 (casein kinase 1 alpha 1) | SID315448132 | -0.17 | inactive
CSNK1A1 (casein kinase 1 alpha 1) | SID315448132 | -0.53 | inactive
CSNK1A1 (casein kinase 1 alpha 1) | SID315448132 | -0.52 | inactive
CSNK1A1 (casein kinase 1 alpha 1) | SID315448132 | 1.04 | inactive
ABCC11 (ATP binding cassette subfamily C member 11) | SID315460663 | 0.89 | inactive
ABCC11 (ATP binding cassette subfamily C member 11) | SID315460663 | -0.5 | inactive
ABCC11 (ATP binding cassette subfamily C member 11) | SID315460663 | 0.79 | inactive
ABCC11 (ATP binding cassette subfamily C member 11) | SID315460663 | 2.06 | inactive
ATP10B (ATPase phospholipid transporting 10B (putative)) | SID315455005 | 0.14 | inactive
ATP10B (ATPase phospholipid transporting 10B (putative)) | SID315455005 | 1.41 | inactive
ATP10B (ATPase phospholipid transporting 10B (putative)) | SID315455005 | 1.78 | inactive
ATP10B (ATPase phospholipid transporting 10B (putative)) | SID315455005 | 2.54 | inactive
KRT24 (keratin 24) | SID315462944 | -0.37 | inactive
KRT24 (keratin 24) | SID315462944 | 0.44 | inactive
KRT24 (keratin 24) | SID315462944 | -0.6 | inactive
KRT24 (keratin 24) | SID315462944 | -0.4 | inactive
FYB1 (FYN binding protein 1) | SID315448783 | 0.7 | inactive
FYB1 (FYN binding protein 1) | SID315448783 | 0.09 | inactive
FYB1 (FYN binding protein 1) | SID315448783 | -0.01 | inactive
FYB1 (FYN binding protein 1) | SID315448783 | -0.61 | inactive
CGB8 (chorionic gonadotropin subunit beta 8) | SID315461118 | 0.19 | inactive
CGB8 (chorionic gonadotropin subunit beta 8) | SID315461118 | 0.49 | inactive
CGB8 (chorionic gonadotropin subunit beta 8) | SID315461118 | -1.22 | inactive
CGB8 (chorionic gonadotropin subunit beta 8) | SID315461118 | -0.56 | inactive
MGAT4B | SID315454742 | -1.2 | inactive
MGAT4B | SID315454742 | -0.58 | inactive
MGAT4B | SID315454742 | -1.35 | inactive
MGAT4B | SID315454742 | -1.26 | inactive
ALG14 (ALG14 UDP-N-acetylglucosaminyltransferase subunit) | SID315463009 | 0.31 | inactive
ALG14 (ALG14 UDP-N-acetylglucosaminyltransferase subunit) | SID315463009 | -0.32 | inactive
ALG14 (ALG14 UDP-N-acetylglucosaminyltransferase subunit) | SID315463009 | -0.95 | inactive
ALG14 (ALG14 UDP-N-acetylglucosaminyltransferase subunit) | SID315463009 | -0.72 | inactive
RC3H2 (ring finger and CCCH-type domains 2) | SID315457070 | -1.66 | active
RC3H2 (ring finger and CCCH-type domains 2) | SID315457070 | 0.52 | inactive
RC3H2 (ring finger and CCCH-type domains 2) | SID315457070 | 0.12 | inactive
RC3H2 (ring finger and CCCH-type domains 2) | SID315457070 | -0.52 | inactive
MIR9-1HG (MIR9-1 host gene) | SID315454130 | -0.16 | inactive
MIR9-1HG (MIR9-1 host gene) | SID315454130 | -0.61 | inactive
MIR9-1HG (MIR9-1 host gene) | SID315454130 | -0.28 | inactive
MIR9-1HG (MIR9-1 host gene) | SID315454130 | -0.03 | inactive

A stretch from the list above, for reference:
gene symbol | PubChem SID | TNF reporter robust z-score | outcome
ABCC11 (ATP binding cassette subfamily C member 11) | SID315460663 | 0.89 | inactive
ABCC11 (ATP binding cassette subfamily C member 11) | SID315460663 | -0.5 | inactive
ABCC11 (ATP binding cassette subfamily C member 11) | SID315460663 | 0.79 | inactive
ABCC11 (ATP binding cassette subfamily C member 11) | SID315460663 | 2.06 | inactive
ATP10B (ATPase phospholipid transporting 10B (putative)) | SID315455005 | 0.14 | inactive
ATP10B (ATPase phospholipid transporting 10B (putative)) | SID315455005 | 1.41 | inactive
ATP10B (ATPase phospholipid transporting 10B (putative)) | SID315455005 | 1.78 | inactive
ATP10B (ATPase phospholipid transporting 10B (putative)) | SID315455005 | 2.54 | inactive
KRT24 (keratin 24) | SID315462944 | -0.37 | inactive
KRT24 (keratin 24) | SID315462944 | 0.44 | inactive
KRT24 (keratin 24) | SID315462944 | -0.6 | inactive
KRT24 (keratin 24) | SID315462944 | -0.4 | inactive
FYB1 (FYN binding protein 1) | SID315448783 | 0.7 | inactive
FYB1 (FYN binding protein 1) | SID315448783 | 0.09 | inactive
FYB1 (FYN binding protein 1) | SID315448783 | -0.01 | inactive
FYB1 (FYN binding protein 1) | SID315448783 | -0.61 | inactive

More records follow.
gene symbol | PubChem SID | TNF reporter robust z-score | outcome
TMEM175 (transmembrane protein 175) | SID315460298 | 2.67 | inactive
TMEM175 (transmembrane protein 175) | SID315460298 | 4.59 | active
TMEM175 (transmembrane protein 175) | SID315460298 | 0.91 | inactive
TMEM175 (transmembrane protein 175) | SID315460298 | 2.69 | inactive
TMEM170A (transmembrane protein 170A) | SID315461614 | -0.54 | inactive
TMEM170A (transmembrane protein 170A) | SID315461614 | 0.37 | inactive
TMEM170A (transmembrane protein 170A) | SID315461614 | 0.22 | inactive
TMEM170A (transmembrane protein 170A) | SID315461614 | -0.14 | inactive
NEO1 (neogenin 1) | SID315450212 | 0.52 | inactive
NEO1 (neogenin 1) | SID315450212 | 0.23 | inactive
NEO1 (neogenin 1) | SID315450212 | 0.66 | inactive
NEO1 (neogenin 1) | SID315450212 | 1.47 | inactive
CXCR6 (C-X-C motif chemokine receptor 6) | SID315454279 | 0.26 | inactive
CXCR6 (C-X-C motif chemokine receptor 6) | SID315454279 | 1.44 | inactive
CXCR6 (C-X-C motif chemokine receptor 6) | SID315454279 | -0.09 | inactive
CXCR6 (C-X-C motif chemokine receptor 6) | SID315454279 | -0.36 | inactive
OR1K1 (olfactory receptor family 1 subfamily K member 1) | SID315464700 | 1.47 | inactive
OR1K1 (olfactory receptor family 1 subfamily K member 1) | SID315464700 | 1.22 | inactive
OR1K1 (olfactory receptor family 1 subfamily K member 1) | SID315464700 | 0.63 | inactive
OR1K1 (olfactory receptor family 1 subfamily K member 1) | SID315464700 | 0.41 | inactive
CLTRN (collectrin, amino acid transport regulator) | SID315458364 | 1.2 | inactive
CLTRN (collectrin, amino acid transport regulator) | SID315458364 | 0.75 | inactive
CLTRN (collectrin, amino acid transport regulator) | SID315458364 | 1.65 | inactive
CLTRN (collectrin, amino acid transport regulator) | SID315458364 | 2.86 | active
PDAP1 (PDGFA associated protein 1) | SID315454765 | -0.41 | inactive
PDAP1 (PDGFA associated protein 1) | SID315454765 | -0.44 | inactive
PDAP1 (PDGFA associated protein 1) | SID315454765 | -1.17 | inactive
PDAP1 (PDGFA associated protein 1) | SID315454765 | -0.86 | inactive
RPS21 (ribosomal protein S21) | SID315451240 | -1.13 | inactive
RPS21 (ribosomal protein S21) | SID315451240 | -0.7 | inactive
RPS21 (ribosomal protein S21) | SID315451240 | -1.01 | inactive
RPS21 (ribosomal protein S21) | SID315451240 | -1.11 | inactive
NLRP1 (NLR family pyrin domain containing 1) | SID315454824 | -0.01 | inactive
NLRP1 (NLR family pyrin domain containing 1) | SID315454824 | -0.13 | inactive
NLRP1 (NLR family pyrin domain containing 1) | SID315454824 | -0.2 | inactive
NLRP1 (NLR family pyrin domain containing 1) | SID315454824 | -0.19 | inactive
RAB1A (RAB1A, member RAS oncogene family) | SID315451004 | 0.48 | inactive
RAB1A (RAB1A, member RAS oncogene family) | SID315451004 | 2.01 | inactive
RAB1A (RAB1A, member RAS oncogene family) | SID315451004 | 1.27 | inactive
RAB1A (RAB1A, member RAS oncogene family) | SID315451004 | 1.51 | inactive
TRA2A (transformer 2 alpha homolog) | SID315456202 | 0.76 | inactive
TRA2A (transformer 2 alpha homolog) | SID315456202 | 0.25 | inactive
TRA2A (transformer 2 alpha homolog) | SID315456202 | 0.48 | inactive
TRA2A (transformer 2 alpha homolog) | SID315456202 | 0.69 | inactive
WASHC2C (WASH complex subunit 2C) | SID315463426 | 0.88 | inactive
WASHC2C (WASH complex subunit 2C) | SID315463426 | 1.09 | inactive
WASHC2C (WASH complex subunit 2C) | SID315463426 | -0.71 | inactive
WASHC2C (WASH complex subunit 2C) | SID315463426 | 0.16 | inactive
CCDC73 (coiled-coil domain containing 73) | SID315465001 | 0.4 | inactive
CCDC73 (coiled-coil domain containing 73) | SID315465001 | 0.64 | inactive
CCDC73 (coiled-coil domain containing 73) | SID315465001 | 1.94 | inactive
CCDC73 (coiled-coil domain containing 73) | SID315465001 | 1.15 | inactive
